System: anti-8EPGF2 IgG
Assay: immunoreactivity of antibodies against 8EPGF2 for esterified 8EPGF2
Type: binding, goat

For `CCCCC[C@H](O)/C=C/[C@@H]1[C@H](C/C=C\CCCC(=O)O)[C@@H](O)C[C@H]1O` [8EPGF2, 8-epi-prostaglandin F2α], the “8-epi-PGF2α, Free Form” value (free form) was 113.8 pg/mg oxidized LDL and the “8-epi-PGF2α, Total” value (total) was 795.7 pg/mg oxidized LDL.
